From PMC5595348
Results are given in words; binding and its absence hold for the method and conditions named. In cells and extracts the contact can be indirect. Some results given as binding are weak or reduced against the parent protein; the word gives no strength. For some of these results: Tags and fused reporters may be left off the sequences shown.

Sequences of proteins named here, by UniProt entry; tags and fusion partners are left off.
UniProt O14964: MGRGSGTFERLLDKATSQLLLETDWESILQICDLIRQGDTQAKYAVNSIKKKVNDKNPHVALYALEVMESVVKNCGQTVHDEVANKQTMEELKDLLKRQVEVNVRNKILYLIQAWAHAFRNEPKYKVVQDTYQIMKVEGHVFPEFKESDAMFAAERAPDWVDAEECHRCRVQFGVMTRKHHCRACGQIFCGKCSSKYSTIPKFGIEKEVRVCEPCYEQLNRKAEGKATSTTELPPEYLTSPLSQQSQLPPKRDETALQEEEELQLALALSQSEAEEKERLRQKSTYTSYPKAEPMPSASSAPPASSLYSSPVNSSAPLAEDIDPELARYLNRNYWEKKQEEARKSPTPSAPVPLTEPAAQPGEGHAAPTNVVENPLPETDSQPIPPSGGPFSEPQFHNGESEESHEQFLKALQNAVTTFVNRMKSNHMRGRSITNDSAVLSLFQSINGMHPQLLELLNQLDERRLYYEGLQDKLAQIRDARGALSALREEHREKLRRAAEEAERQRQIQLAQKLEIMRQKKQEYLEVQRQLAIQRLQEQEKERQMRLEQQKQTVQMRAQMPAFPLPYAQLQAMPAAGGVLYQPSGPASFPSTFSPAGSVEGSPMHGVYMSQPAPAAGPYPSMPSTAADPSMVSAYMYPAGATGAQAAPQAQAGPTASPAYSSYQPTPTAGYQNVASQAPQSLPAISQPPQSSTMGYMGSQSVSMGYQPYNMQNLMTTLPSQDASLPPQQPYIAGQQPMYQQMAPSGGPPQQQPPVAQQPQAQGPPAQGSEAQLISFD
UniProt P51617: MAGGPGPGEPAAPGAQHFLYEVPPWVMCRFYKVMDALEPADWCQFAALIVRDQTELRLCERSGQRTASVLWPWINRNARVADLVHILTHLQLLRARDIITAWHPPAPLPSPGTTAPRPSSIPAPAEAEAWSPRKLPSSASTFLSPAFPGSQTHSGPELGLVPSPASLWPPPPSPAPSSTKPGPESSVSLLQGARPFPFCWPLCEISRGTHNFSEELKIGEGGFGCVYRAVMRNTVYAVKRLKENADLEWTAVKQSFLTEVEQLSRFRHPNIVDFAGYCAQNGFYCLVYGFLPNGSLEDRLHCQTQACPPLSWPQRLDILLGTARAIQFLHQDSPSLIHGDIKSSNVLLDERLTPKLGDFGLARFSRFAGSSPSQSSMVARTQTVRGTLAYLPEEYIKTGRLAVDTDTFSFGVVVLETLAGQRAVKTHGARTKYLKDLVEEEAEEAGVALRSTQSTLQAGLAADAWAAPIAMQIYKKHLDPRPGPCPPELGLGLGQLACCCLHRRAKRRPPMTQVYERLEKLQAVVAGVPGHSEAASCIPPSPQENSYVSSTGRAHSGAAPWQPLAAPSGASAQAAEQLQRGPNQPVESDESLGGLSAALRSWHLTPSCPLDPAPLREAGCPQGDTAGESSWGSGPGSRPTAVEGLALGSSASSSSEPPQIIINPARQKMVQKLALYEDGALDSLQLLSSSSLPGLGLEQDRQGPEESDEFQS
UniProt Q99836: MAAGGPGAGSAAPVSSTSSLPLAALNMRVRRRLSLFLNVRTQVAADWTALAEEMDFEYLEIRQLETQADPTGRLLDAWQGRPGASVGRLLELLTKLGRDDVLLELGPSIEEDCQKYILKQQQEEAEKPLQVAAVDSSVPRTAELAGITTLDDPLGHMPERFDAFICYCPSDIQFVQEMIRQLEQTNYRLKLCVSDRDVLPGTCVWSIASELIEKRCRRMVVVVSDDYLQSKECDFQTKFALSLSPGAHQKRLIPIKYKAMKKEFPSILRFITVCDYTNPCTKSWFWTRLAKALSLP

T1: TLR7 (endogenous) (human (endogenous in THP-1)) (UniProt Q9NYK1)
T1 sequence: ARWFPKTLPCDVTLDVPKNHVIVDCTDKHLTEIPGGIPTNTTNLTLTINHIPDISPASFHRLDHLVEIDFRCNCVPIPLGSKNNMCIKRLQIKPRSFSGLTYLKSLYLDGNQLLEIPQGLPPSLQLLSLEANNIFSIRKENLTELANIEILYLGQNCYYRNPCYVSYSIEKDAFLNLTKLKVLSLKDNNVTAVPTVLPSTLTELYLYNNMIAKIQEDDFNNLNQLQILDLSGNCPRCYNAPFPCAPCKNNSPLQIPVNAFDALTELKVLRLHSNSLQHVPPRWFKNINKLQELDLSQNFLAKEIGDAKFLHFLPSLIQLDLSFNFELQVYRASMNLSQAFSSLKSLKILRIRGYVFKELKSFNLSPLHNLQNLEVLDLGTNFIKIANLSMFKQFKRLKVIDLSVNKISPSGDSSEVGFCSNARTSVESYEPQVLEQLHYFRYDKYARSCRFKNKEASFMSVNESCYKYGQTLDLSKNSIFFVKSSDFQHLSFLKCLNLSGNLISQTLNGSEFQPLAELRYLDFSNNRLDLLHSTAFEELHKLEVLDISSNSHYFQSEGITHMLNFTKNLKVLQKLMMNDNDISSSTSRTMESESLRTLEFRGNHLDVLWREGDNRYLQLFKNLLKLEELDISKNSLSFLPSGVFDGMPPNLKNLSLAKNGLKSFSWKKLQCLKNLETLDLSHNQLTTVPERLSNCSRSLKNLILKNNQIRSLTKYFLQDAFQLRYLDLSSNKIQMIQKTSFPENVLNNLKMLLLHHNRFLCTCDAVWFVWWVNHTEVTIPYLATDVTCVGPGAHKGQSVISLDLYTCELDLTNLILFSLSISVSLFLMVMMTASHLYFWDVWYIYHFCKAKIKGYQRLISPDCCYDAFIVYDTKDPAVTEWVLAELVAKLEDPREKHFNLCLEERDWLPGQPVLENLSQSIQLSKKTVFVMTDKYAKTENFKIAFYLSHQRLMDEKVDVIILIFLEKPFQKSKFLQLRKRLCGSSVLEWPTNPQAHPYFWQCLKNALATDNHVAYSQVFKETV

B1: TLR7 (endogenous) (receptor, UniProt Q9NYK1 27-1049)
chain: T1 sequence
B2: GFP-tagged TLR7 (receptor, UniProt Q9NYK1 27-1049)
chain: T1 sequence
B3: GFP-tagged TAB1 (protein, UniProt Q15750 1-504)
chain: MAAQRRSLLQSEQQPSWTDDLPLCHLSGVGSASNRSYSADGKGTESHPPEDSWLKFRSENNCFLYGVFNGYDGNRVTNFVAQRLSAELLLGQLNAEHAEADVRRVLLQAFDVVERSFLESIDDALAEKASLQSQLPEGVPQHQLPPQYQKILERLKTLEREISGGAMAVVAVLLNNKLYVANVGTNRALLCKSTVDGLQVTQLNVDHTTENEDELFRLSQLGLDAGKIKQVGIICGQESTRRIGDYKVKYGYTDIDLLSAAKSKPIIAEPEIHGAQPLDGVTGFLVLMSEGLYKALEAAHGPGQANQEIAAMIDTEFAKQTSLDAVAQAVVDRVKRIHSDTFASGGERARFCPRHEDMTLLVRNFGYPLGEMSQPTPSPAPAAGGRVYPVSVPYSSAQSTSKTSVTLSLVMPSQGQMVNGAHSASTLDEATPTLTNQSPTLTLQSTNTHTQSSSSSSDGGLFRSRPAHSLPPGEDGRVEPYVDFAEFYRLWSVDHGEQSVVTAP
B4: GFP-tagged TAK1 (protein, UniProt O43318 1-606)
chain: MSTASAASSSSSSSAGEMIEAPSQVLNFEEIDYKEIEVEEVVGRGAFGVVCKAKWRAKDVAIKQIESESERKAFIVELRQLSRVNHPNIVKLYGACLNPVCLVMEYAEGGSLYNVLHGAEPLPYYTAAHAMSWCLQCSQGVAYLHSMQPKALIHRDLKPPNLLLVAGGTVLKICDFGTACDIQTHMTNNKGSAAWMAPEVFEGSNYSEKCDVFSWGIILWEVITRRKPFDEIGGPAFRIMWAVHNGTRPPLIKNLPKPIESLMTRCWSKDPSQRPSMEEIVKIMTHLMRYFPGADEPLQYPCQYSDEGQSNSATSTGSFMDIASTNTSNKSDTNMEQVPATNDTIKRLESKLLKNQAKQQSESGRLSLGASRGSSVESLPPTSEGKRMSADMSEIEARIAATTAYSKPKRGHRKTASFGNILDVPEIVISGNGQPRRRSIQDLTVTGTEPGQVSSRSSSPSVRMITTSGPTSEKPTRSHPWTPDDSTDTNGSDNSIPMAYLTLDHQLQPLAPCPNSKESMAVFEQHCKMAQEYMKVQTEIALLLQRKQELVAELDQDEKDQQNTSRLVQEHKKLLDENKSLSTYYQQCKKQLEVIRSQQQKRQGTS
B5: GFP-tagged TBK1 (protein, UniProt Q9UHD2 1-729)
chain: MQSTSNHLWLLSDILGQGATANVFRGRHKKTGDLFAIKVFNNISFLRPVDVQMREFEVLKKLNHKNIVKLFAIEEETTTRHKVLIMEFCPCGSLYTVLEEPSNAYGLPESEFLIVLRDVVGGMNHLRENGIVHRDIKPGNIMRVIGEDGQSVYKLTDFGAARELEDDEQFVSLYGTEEYLHPDMYERAVLRKDHQKKYGATVDLWSIGVTFYHAATGSLPFRPFEGPRRNKEVMYKIITGKPSGAISGVQKAENGPIDWSGDMPVSCSLSRGLQVLLTPVLANILEADQEKCWGFDQFFAETSDILHRMVIHVFSLQQMTAHKIYIHSYNTATIFHELVYKQTKIISSNQELIYEGRRLVLEPGRLAQHFPKTTEENPIFVVSREPLNTIGLIYEKISLPKVHPRYDLDGDASMAKAITGVVCYACRIASTLLLYQELMRKGIRWLIELIKDDYNETVHKKTEVVITLDFCIRNIEKTVKVYEKLMKINLEAAELGEISDIHTKLLRLSSSQGTIETSLQDIDSRLSPGGSLADAWAHQEGTHPKDRNVEKLQVLLNCMTEIYYQFKKDKAERRLAYNEEQIHKFDKQKLYYHATKAMTHFTDECVKKYEAFLNKSEEWIRKMLHLRKQLLSLTNQCFDIEEEVSKYQEYTNELQETLPQKMFTASSGIKHTMTPIYPSSNTLVEMTLGMKKLKEEMEGVVKELAENNHILERFGSLTMDGGLRNVDCL
B6: PKCζ (endogenous) (protein, UniProt Q05513 1-592)
chain: MPSRTGPKMEGSGGRVRLKAHYGGDIFITSVDAATTFEELCEEVRDMCRLHQQHPLTLKWVDSEGDPCTVSSQMELEEAFRLARQCRDEGLIIHVFPSTPEQPGLPCPGEDKSIYRRGARRWRKLYRANGHLFQAKRFNRRAYCGQCSERIWGLARQGYRCINCKLLVHKRCHGLVPLTCRKHMDSVMPSQEPPVDDKNEDADLPSEETDGIAYISSSRKHDSIKDDSEDLKPVIDGMDGIKISQGLGLQDFDLIRVIGRGSYAKVLLVRLKKNDQIYAMKVVKKELVHDDEDIDWVQTEKHVFEQASSNPFLVGLHSCFQTTSRLFLVIEYVNGGDLMFHMQRQRKLPEEHARFYAAEICIALNFLHERGIIYRDLKLDNVLLDADGHIKLTDYGMCKEGLGPGDTTSTFCGTPNYIAPEILRGEEYGFSVDWWALGVLMFEMMAGRSPFDIITDNPDMNTEDYLFQVILEKPIRIPRFLSVKASHVLKGFLNKDPKERLGCRPQTGFSDIKSHAFFRSIDWDLLEKKQALPPFQPQITDDYGLDNFDTQFTSEPVQLTPDDEDAIKRIDQSEFEGFEYINPLLLSTEESV

Target: GST-HRS (human) (UniProt O14964)
Assay: pull-down; 25 ug purified GST or GST-HRS and glutathione-sepharose beads incubated with THP-1 cell lysate for 2 h at 4 °C; four washes with ice-cold lysis buffer; immunoblot; only the target purified

| Molecule | binding |
| --- | --- |
| B1 | binds |

Target: HRS-Myc fusion protein (hepatocyte growth factor-regulated tyrosine kinase substrate) (human) (UniProt O14964)
Assay: co-IP; HEK293T cells co-transfected with HRS-Myc and GFP or GFP fusion proteins; whole cell lysates immunoprecipitated with anti-Myc antibody; Western blot with anti-GFP and anti-Myc

| Molecule | binding |
| --- | --- |
| GFP-tagged IRAK1 (from UniProt P51617 1-712) | no binding |
| GFP-tagged MyD88 (from UniProt Q99836 1-296) | no binding |
| B2 | binds |
| B3 | binds |
| B4 | binds |
| B5 | no binding |

Target: T1, TLR7 (endogenous) (human (endogenous in THP-1))
Assay: co-IP; endogenous proteins; macrophages derived from THP-1 cells stimulated with R848 (100 ng/ml) or infected with EV71 (MOI = 5) for various times, also after transfection of siR-HRS or siR-NC; lysed in RIPA buffer; immunoprecipitated with rabbit anti-TLR7 or normal rabbit IgG and protein G …; Western blot

| Molecule | binding |
| --- | --- |
| MyD88 (endogenous) (from UniProt Q99836 1-296) | binds |
| IRAK1 (endogenous) (from UniProt P51617 1-712) | binds |
| B6 | binds |
